Experimental data reported in the supplement of paper PMC6411743.
± gives the standard deviation of the averaged measurements. This is a selection; strong and weak results do not stand in their true shares. Most values lie at the level of the controls, where differences are scatter.

Amino acid sequences for entries named in this document (tags omitted). A change or cut given only in a name is not applied to a line headed by its entry.
UniProt Q9Y3C1: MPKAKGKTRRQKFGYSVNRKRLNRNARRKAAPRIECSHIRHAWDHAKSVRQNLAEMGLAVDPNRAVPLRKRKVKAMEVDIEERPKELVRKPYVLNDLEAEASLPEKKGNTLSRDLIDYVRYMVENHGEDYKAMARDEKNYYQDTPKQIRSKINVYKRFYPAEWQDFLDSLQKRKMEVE
UniProt Q9NVV0: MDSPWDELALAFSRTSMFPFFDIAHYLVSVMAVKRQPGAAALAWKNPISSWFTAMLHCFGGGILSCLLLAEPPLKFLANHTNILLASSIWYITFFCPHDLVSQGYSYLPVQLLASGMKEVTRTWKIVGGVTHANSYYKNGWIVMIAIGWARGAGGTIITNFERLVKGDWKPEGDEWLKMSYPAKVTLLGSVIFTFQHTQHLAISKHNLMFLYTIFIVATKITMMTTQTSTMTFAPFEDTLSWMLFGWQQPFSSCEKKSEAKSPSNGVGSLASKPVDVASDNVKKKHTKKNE
UniProt O75586: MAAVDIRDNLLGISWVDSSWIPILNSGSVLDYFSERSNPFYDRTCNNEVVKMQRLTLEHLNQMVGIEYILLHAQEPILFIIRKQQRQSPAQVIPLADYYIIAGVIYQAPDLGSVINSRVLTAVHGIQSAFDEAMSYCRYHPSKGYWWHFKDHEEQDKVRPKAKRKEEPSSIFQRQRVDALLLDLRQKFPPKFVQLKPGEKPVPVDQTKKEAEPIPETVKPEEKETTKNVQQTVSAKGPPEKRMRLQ
UniProt Q9H204: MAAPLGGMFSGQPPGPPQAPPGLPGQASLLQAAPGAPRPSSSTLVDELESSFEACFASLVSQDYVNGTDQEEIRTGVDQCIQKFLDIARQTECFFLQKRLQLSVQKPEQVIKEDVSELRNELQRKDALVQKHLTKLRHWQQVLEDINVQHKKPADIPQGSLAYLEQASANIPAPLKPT
UniProt P62333, whole entry: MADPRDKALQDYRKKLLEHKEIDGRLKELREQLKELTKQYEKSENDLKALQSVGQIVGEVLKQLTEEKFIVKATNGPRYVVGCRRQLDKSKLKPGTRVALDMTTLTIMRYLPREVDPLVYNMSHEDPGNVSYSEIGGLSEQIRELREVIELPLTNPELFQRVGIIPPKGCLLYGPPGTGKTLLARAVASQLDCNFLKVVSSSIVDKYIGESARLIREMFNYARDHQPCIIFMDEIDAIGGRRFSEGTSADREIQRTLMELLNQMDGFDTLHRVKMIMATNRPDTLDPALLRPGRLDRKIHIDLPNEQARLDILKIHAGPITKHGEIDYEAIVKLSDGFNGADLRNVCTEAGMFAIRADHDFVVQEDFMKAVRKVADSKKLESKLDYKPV
UniProt Q9UHX1: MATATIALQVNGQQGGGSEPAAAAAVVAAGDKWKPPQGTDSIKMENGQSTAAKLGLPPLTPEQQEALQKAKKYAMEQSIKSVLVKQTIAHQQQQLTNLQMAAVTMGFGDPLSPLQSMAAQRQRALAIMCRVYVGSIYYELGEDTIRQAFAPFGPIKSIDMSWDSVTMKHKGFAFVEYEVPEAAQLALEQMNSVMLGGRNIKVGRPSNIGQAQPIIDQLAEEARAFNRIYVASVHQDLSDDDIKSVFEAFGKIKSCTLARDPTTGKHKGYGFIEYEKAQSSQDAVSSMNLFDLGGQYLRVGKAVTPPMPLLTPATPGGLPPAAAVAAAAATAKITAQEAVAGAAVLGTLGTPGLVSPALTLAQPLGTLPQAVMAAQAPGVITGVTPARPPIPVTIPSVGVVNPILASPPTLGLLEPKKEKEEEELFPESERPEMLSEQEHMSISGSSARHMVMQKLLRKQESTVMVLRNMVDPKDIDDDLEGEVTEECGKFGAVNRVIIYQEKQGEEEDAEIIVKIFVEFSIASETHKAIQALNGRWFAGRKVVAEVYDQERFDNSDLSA
UniProt P27448: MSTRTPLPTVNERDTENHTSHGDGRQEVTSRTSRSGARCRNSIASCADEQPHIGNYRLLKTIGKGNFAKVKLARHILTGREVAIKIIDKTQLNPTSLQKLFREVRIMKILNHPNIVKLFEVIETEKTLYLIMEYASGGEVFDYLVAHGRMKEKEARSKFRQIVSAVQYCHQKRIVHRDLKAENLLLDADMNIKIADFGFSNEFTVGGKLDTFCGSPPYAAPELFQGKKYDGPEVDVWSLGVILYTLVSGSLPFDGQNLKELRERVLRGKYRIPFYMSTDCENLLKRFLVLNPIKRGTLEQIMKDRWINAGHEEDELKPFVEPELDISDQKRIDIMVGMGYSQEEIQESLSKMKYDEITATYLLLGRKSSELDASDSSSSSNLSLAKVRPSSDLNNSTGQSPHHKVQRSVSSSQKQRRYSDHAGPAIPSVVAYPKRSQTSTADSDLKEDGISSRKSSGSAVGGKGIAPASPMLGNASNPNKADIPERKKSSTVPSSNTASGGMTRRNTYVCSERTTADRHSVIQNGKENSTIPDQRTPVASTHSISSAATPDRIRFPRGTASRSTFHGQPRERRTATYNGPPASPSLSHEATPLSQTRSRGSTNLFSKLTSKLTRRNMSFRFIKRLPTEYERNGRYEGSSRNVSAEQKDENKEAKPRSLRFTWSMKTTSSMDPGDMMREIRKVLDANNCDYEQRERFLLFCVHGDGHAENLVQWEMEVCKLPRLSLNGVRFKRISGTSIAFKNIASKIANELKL
UniProt Q9NRZ9: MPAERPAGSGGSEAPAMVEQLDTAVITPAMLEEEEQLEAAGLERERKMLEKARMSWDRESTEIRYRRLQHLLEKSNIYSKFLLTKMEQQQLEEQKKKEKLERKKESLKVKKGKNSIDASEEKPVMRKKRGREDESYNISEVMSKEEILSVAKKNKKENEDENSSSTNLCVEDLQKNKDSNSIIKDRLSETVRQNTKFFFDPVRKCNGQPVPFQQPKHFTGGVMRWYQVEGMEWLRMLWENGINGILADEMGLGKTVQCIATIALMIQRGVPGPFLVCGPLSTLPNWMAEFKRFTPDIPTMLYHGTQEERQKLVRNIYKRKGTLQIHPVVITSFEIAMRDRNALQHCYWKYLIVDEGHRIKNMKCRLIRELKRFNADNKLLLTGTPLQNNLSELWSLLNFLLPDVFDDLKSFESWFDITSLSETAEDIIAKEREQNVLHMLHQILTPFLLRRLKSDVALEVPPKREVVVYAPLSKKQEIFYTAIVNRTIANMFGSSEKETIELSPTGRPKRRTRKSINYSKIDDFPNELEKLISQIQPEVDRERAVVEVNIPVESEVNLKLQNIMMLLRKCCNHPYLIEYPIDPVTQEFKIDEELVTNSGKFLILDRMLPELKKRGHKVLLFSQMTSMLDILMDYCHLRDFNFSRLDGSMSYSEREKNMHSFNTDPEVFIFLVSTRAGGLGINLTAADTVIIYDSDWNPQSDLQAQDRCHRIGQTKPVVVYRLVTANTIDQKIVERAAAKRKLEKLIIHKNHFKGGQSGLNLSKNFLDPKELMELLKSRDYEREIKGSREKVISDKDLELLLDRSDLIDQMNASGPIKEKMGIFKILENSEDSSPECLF
UniProt Q8NEL9: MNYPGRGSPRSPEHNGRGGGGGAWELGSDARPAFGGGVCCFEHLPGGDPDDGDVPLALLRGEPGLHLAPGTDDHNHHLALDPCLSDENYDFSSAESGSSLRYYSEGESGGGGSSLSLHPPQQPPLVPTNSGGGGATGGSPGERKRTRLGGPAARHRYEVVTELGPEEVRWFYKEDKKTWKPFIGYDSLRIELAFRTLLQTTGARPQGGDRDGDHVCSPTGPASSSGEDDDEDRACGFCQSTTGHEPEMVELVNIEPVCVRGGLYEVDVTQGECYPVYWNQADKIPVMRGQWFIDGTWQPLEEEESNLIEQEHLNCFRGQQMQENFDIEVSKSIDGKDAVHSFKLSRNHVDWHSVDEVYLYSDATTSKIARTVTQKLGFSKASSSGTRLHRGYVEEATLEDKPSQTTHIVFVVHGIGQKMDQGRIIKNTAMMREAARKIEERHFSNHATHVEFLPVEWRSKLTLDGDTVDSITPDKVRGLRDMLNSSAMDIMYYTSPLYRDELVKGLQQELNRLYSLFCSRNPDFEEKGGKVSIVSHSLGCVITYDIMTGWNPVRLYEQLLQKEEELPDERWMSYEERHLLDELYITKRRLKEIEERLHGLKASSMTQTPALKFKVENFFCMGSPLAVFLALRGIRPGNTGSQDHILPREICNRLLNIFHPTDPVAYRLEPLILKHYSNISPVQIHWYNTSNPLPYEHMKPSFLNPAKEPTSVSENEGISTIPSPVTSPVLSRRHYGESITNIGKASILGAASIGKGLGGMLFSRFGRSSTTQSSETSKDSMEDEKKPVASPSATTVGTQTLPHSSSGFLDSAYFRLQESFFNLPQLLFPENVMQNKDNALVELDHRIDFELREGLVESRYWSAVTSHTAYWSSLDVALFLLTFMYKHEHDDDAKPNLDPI
UniProt P26440: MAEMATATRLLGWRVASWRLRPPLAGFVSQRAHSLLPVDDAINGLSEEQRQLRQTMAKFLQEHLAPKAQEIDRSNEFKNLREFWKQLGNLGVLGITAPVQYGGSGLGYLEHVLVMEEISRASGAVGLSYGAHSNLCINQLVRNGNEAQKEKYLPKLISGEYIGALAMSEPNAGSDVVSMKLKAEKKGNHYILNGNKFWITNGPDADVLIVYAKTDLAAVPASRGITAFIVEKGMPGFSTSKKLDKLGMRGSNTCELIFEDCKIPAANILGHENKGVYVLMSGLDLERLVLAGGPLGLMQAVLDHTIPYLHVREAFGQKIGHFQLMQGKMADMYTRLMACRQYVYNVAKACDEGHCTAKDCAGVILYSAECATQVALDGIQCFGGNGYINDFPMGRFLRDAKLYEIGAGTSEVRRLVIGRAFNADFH
UniProt Q02833: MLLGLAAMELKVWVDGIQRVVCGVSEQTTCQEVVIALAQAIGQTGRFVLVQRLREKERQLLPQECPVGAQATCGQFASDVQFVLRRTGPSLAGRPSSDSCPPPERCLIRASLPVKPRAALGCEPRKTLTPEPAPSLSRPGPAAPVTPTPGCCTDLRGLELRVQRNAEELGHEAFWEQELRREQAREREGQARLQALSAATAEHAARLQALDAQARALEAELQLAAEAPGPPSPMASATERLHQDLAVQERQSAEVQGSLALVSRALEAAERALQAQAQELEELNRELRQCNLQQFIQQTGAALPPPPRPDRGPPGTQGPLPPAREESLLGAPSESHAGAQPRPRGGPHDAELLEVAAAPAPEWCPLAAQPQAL
UniProt O75386: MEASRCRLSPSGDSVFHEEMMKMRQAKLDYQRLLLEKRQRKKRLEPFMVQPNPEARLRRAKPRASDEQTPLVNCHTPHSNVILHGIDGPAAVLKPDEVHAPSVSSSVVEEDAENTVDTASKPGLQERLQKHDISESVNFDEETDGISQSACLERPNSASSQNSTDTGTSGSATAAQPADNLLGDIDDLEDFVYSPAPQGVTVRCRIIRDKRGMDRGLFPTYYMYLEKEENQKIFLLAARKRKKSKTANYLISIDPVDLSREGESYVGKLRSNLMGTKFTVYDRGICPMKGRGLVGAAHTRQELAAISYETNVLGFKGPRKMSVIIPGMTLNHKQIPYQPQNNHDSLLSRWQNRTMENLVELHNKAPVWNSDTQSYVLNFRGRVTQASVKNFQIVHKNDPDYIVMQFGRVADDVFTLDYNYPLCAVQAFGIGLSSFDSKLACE
UniProt P61077: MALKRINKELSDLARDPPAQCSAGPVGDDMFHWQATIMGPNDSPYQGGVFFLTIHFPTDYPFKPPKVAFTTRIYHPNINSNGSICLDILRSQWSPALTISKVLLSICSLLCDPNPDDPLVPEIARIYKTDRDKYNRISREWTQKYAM
UniProt Q9Y496, whole entry: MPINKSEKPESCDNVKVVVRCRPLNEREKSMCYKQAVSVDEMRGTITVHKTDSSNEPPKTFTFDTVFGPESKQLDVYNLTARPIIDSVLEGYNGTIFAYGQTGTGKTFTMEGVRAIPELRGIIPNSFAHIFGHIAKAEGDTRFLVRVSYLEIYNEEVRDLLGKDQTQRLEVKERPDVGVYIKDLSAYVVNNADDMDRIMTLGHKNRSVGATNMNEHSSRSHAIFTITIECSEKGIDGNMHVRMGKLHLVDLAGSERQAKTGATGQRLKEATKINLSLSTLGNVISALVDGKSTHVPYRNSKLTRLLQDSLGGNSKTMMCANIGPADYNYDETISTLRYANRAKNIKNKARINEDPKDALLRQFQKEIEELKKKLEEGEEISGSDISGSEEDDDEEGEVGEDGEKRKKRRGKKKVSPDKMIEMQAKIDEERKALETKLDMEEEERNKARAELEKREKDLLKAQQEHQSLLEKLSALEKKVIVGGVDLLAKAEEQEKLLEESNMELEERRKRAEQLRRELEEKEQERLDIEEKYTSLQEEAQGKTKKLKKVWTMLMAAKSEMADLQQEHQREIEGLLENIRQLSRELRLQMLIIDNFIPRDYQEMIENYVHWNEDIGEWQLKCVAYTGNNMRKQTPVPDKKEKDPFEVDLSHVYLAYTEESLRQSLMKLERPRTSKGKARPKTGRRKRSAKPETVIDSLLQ

Compound: Nc1ncnc2c1ncn2[C@@H]1O[C@H](COP(=O)(O)OP(=O)(O)NP(=O)(O)O)[C@@H](O)[C@H]1O [adenylyl imidodiphosphate]
Experiment: NP40-soluble protein abundance relative to vehicle (solubility fold change) (ratio); higher = more soluble protein in presence of AMP-PNP
How it was run: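 Crude Jurkat lysate, prepared by Dounce homogenisation, was exposed to eight concentrations from 0.1 to 10 mM for 10 min at room temperature and then 3 min at 37 °C. Solubilisation used 0.8% NP40 with benzonase for 60 min at 4 °C, followed by ultracentrifugation and TMT labelling of the supernatant for LC-MS/MS. After vsn normalisation of intensities, each value is the fold change against the detergent-processed vehicle within each replicate, across three independent experiments.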

Work on “A0A087X2G6|A0A0C4DGU5|D6RIC3 and related entries (UniProt Q9Y3C1)” yielded an NP40-soluble protein abundance (concentration: 0.1mM) of 1 ± 0.038 and an NP40-soluble protein abundance (concentration: 0.5mM) of 1.01 ± 0.018.

A0A0A0MRS4|Q9NVV0 (UniProt Q9NVV0) gave an NP40-soluble protein abundance (concentration: 0.1mM) of 0.9993 ± 0.0054 and an NP40-soluble protein abundance (concentration: 0.5mM) of 1.08 ± 0.032.

Target “A0A087WYL7|G3V4A5 and related entries (UniProt O75586)” has an NP40-soluble protein abundance (concentration: 0.1mM) of 0.999 ± 0.025 and an NP40-soluble protein abundance (concentration: 0.5mM) of 0.976 ± 0.054.

With “A0A087X0M1|H0YAA8 and related entries (UniProt Q9H204)” the NP40-soluble protein abundance (concentration: 0.1mM) was 1.02 ± 0.02 and the NP40-soluble protein abundance (concentration: 0.5mM) was 1.05 ± 0.069.

Target A0A087X2I1|P62333 (UniProt P62333) has an NP40-soluble protein abundance (concentration: 0.1mM) of 0.997 ± 0.023 and an NP40-soluble protein abundance (concentration: 0.5mM) of 0.971 ± 0.043.

In the case of “A0A0J9YVP6|E9PQ56 and related entries (UniProt Q9UHX1)”, the NP40-soluble protein abundance (concentration: 0.1mM) is reported as 1.06 ± 0.034 and the NP40-soluble protein abundance (concentration: 0.5mM) is reported as 1.03 ± 0.033.

Work on A0A0A0MT23|A0A0A0MST9 (UniProt P27448) yielded an NP40-soluble protein abundance (concentration: 0.1mM) of 1.05 ± 0.03 and an NP40-soluble protein abundance (concentration: 0.5mM) of 1.05 ± 0.0066.

“A0A0B4J1V9|Q9NRZ9 and related entries (UniProt Q9NRZ9)” gave an NP40-soluble protein abundance (concentration: 0.1mM) of 1.03 ± 0.03 and an NP40-soluble protein abundance (concentration: 0.5mM) of 0.991 ± 0.044.

Work on “A0A087X0H7|Q8NEL9 and related entries (UniProt Q8NEL9)” yielded an NP40-soluble protein abundance (concentration: 0.1mM) of 1.01 ± 0.035 and an NP40-soluble protein abundance (concentration: 0.5mM) of 1.02 ± 0.028.

A0A0A0MT83|P26440 (UniProt P26440) gave an NP40-soluble protein abundance (concentration: 0.1mM) of 1.02 ± 0.032 and an NP40-soluble protein abundance (concentration: 0.5mM) of 0.989 ± 0.015.

For “A0A0G2JLR5|A0A0G2JMW4|Q02833 and related entries (UniProt Q02833)”, the NP40-soluble protein abundance (concentration: 0.1mM) was 1.02 ± 0.037 and the NP40-soluble protein abundance (concentration: 0.5mM) was 1.02 ± 0.027.

With “A0A087WYY4|O75386 and related entries (UniProt O75386)” the NP40-soluble protein abundance (concentration: 0.1mM) was 1.01 ± 0.027 and the NP40-soluble protein abundance (concentration: 0.5mM) was 1.03 ± 0.035.

Work on “A0A087WY85|P61077 and related entries (UniProt P61077)” yielded an NP40-soluble protein abundance (concentration: 0.1mM) of 0.972 ± 0.032 and an NP40-soluble protein abundance (concentration: 0.5mM) of 0.968 ± 0.035.

In the case of “A0A087X011|E9PES4 and related entries (UniProt Q9Y496)”, the NP40-soluble protein abundance (concentration: 0.1mM) is reported as 0.998 ± 0.02 and the NP40-soluble protein abundance (concentration: 0.5mM) is reported as 0.9835 ± 0.0065.
